# In article PMC12408324:
# The chains behind the UniProt entries cited, without tags or fusion partners.
# UniProt P19474: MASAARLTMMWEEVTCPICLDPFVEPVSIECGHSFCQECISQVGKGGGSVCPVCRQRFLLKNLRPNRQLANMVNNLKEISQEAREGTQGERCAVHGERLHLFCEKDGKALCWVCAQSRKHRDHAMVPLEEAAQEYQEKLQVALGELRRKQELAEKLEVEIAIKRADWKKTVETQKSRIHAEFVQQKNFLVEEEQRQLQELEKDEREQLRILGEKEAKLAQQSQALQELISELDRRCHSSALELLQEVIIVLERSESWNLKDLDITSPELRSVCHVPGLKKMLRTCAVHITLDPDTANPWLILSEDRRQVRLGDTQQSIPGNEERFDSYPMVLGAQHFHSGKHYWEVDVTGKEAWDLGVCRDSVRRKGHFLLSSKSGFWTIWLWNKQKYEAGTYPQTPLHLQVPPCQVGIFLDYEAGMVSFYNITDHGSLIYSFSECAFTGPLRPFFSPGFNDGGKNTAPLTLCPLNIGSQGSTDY
# Biological target: T1, Flag-tagged ID1 (human) (UniProt P41134)
# T1 sequence: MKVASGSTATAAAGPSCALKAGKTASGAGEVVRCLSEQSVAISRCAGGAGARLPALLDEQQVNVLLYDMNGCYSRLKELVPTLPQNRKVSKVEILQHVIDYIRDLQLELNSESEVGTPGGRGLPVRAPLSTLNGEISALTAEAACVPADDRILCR
# Test: affinity purification with mass spectrometry; immunoprecipitate from ID1-overexpressing cells under normoxic conditions, trypsin digestion, LC-MS/MS (Q-Exactive), search against SwissProt
substance,measurement,value
TRIM21 (Tripartite motif-containing protein 21) (from UniProt P19474 1-475),binding,binds

# No constants are given. Whether binding was seen depends on the method and setting. Binding seen in cells or lysates may run through a third protein. A yes stands for co-enrichment or nearness to the bait. Other partners may have been found. Where a sequence is shown, tags or fusion partners need not be part of it.
